Some peptides are written in HELM: one residue between dots, names in brackets for other building blocks, links after the first $.
Assay: Fmoc solid-phase peptide synthesis; Amide Resin, 0.66 mmol/g
Details: whole synthesis, HPLC, scale of the general procedure 0.100 mmol; run 1

PEPTIDE1{Y.A.R.A.A.A.R.Q.A.R.A.H.P.R.N.P.A.R.R.T.P.G.T.R.R.G.A.P.A.A.[am]}$$$$V2.0
purity (crude or final not stated): 100%

From patent publication US9309286B2 (TUFTS MEDICAL CENTER, priority 2011, dated 2016)
